This is an account of results in publication PMC8004131 (Viruses, 2021).

Chains of the proteins cited; added tags and fusions are not shown. Residues count along the entry.
UniProt O89342, residues 27-546: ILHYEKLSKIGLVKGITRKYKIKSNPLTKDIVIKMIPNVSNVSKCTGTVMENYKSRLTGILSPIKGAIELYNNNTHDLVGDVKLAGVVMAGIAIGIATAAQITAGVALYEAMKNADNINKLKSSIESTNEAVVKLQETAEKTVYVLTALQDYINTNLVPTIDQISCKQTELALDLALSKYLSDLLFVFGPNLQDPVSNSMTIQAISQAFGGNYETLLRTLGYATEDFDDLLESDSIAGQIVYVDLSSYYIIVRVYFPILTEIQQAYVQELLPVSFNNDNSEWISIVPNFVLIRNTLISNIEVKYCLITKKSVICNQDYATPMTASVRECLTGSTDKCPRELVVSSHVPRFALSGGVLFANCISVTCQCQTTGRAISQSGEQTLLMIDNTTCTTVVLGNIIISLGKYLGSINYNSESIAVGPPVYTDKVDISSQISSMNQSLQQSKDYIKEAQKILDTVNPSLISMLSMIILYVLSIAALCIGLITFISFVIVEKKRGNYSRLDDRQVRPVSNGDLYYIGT

These are yes or no findings as the source states them, for the method shown. In cells and extracts the contact can be indirect. Some results given as binding are weak or reduced against the parent protein; the word gives no strength.

This assay concerns the target Hendra virus fusion glycoprotein (HeV F), full length, S-tagged (Hendra virus) (UniProt O89342). As to the kind of experiment: cross-linking.

On to “Hendra virus fusion glycoprotein (HeV F), full length, S-tagged (from UniProt O89342)”, for which the binding result is “binds”.
